Our source for the AC50 values is PubChem BioAssay AID662 (National Center for Advancing Translational Sciences (NCATS), 2007).

The other results are listed elsewhere or left out. Shown are side measurements of this screen, not its main read-out; they come without a call. The list favours compounds with an active or inconclusive main result. Words in brackets tell the shape of the fitted curve; partial curves, single points and poor fits give uncertain potencies.

This test in a line: Cell signaling CRE-BLA (Fsk stim). The following applies: CHO CRE-bla reporter (cAMP response element driving beta-lactamase), forskolin EC10, beta-lactamase ratio; measured here: 460 nm blue channel. Summed up:
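Forskolin analogue NKH 477 at EC10 stimulated CRE-driven beta-lactamase in CHO cells alongside compound dilution series. Beta-lactamase was measured with CCF4, excitation 405 nm, emission ratio 460/530 nm.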
As a reminder, the AC50 is the concentration giving half of the maximal activity seen. Regarding `CCOC(=O)c1c(NC(=O)CSc2nnc(C)s2)sc2c1CCN(C)C2`, the concentration at half-maximal activity (AC50) was 10 µM [rising, partial curve]. For the compound `O=C(Nc1ccc(F)cc1F)c1cc(-c2ccco2)on1`, the AC50 was 0.00398 µM [falling, full curve, poor fit]. Under `CCc1c(C)nc(SCC(=O)Nc2cccc(Br)c2)[nH]c1=O` stands 10 µM [rising, partial curve]; under `CCOC(=O)CNS(=O)(=O)c1ccc(S(=O)(=O)N2CCCC2)cc1`, 2.51 µM [falling, partial curve]; under `COc1ccc(N2CCN(C(=O)c3ccc(C)cc3Cl)CC2)cc1`, 0.00316 µM [rising, full curve, poor fit]. Consider `COc1ccc(Oc2ncc3nc(-c4ccc(OC)cc4)c(=O)n(CCC#N)c3n2)cc1`, for which the half-maximal activity concentration (AC50) was 7.94 µM [rising, partial curve].

Take `CC(C)c1nc(N2CCN(C(=O)c3ccccc3)CC2)c(C#N)c2c1COC(C)(C)C2`: the AC50 is 2 µM [rising, full curve].

Turning to `CN(C/C(O)=C(\C#N)c1ccccc1)C1CCCCC1`, the concentration at half-maximal activity (AC50) is 0.00794 µM [rising, full curve, poor fit]. For `O=C(CC1SC(=NC2CCCCC2)NC1=O)Nc1ccccc1` (stereo not drawn), the AC50 is 3.98 µM [rising, single point]. As to `CC1=C(C(=O)Nc2ccccc2)C(c2ccc(C)o2)n2c(s/c(=C\c3ccco3)c2=O)=N1` (stereo not drawn), the AC50 was 7.94 µM [falling, partial curve]. As to `Cc1ccc(Cl)cc1-n1c(=O)cc(N2CCN(C(=O)c3ccco3)CC2)[nH]c1=O`, the concentration at half-maximal activity (AC50) is 1 µM [falling, partial curve]. Under `CN(CC(=O)Nc1ccc(Cl)cc1)CC(=O)Nc1cc(Cl)ccc1C#N` stands 12.6 µM [falling, partial curve]. On to `CCOC(=O)CC(=O)CSc1nc(-c2cccnc2)ccc1C#N`, for which the half-maximal activity concentration (AC50) was 12.6 µM [rising, partial curve]. As for `COc1cccc(Nc2ncc3nc(-c4cc(F)cc(F)c4)c(=O)n(CCC#N)c3n2)c1`, the AC50 was 1.58 µM [rising, full curve]. In the case of `Cn1cc(C(=O)N2CCN(C(=O)c3ccco3)CC2)c2c3ccccc3n(C)c2c1=O`, the concentration at half-maximal activity (AC50) is 0.1 µM [falling, full curve]. Consider `CCOC(=O)C1=C(c2ccccc2)N2CCS(=O)(=O)N=C2S1`, for which the AC50 is 5.01 µM [rising, partial curve]. As to `CCOC(=O)Cn1nnnc1C(C(C)C)N(Cc1cc2c(C)cc(C)cc2[nH]c1=O)C1CCCC1` (stereo not drawn), the AC50 was 3.98 µM [rising, partial curve].

Consider `O=S(=O)(Cc1ccccc1)N1CCCC1`, for which the AC50 was 5.01 µM [rising, single point]. As to `CCOC(=O)N1CCC(c2[nH][nH]c(=O)c2C)CC1`, the AC50 is 0.00398 µM [falling, full curve, poor fit]. Under `Cc1c(C(=O)NCCN2CCOCC2)sc2nc(-c3ccc(F)cc3)cn12` stands 12.6 µM [rising, single point]; under `CCc1ccc(NC(=O)Cn2c(=O)n(CCCC(=O)NCc3ccco3)c(=O)c3ccccc32)cc1`, 25.1 µM [rising, single point]. With `Cc1ccc2nc(NCCCN3CCOCC3)c(C=NCCCN3CCOCC3)c(=O)n2c1`, the AC50 was 10 µM [rising, partial curve]. For `Oc1ccccc1OCc1nc2ccccc2s1`, the AC50 is 0.0794 µM [rising, full curve]. `O=C(NCC1CCCO1)C(C(=O)c1ccccc1)n1cc(Cl)ccc1=O` (stereo not drawn): the AC50 is 12.6 µM [falling, single point].

As to `CCOC(=O)N1CCC(Nc2ncnc3c2cnn3-c2ccc(C)cc2C)CC1`, the AC50 was 20 µM [falling, single point]. For `COc1cccc(NC(=O)N2CCC(C(=O)Nc3ccc(C)cc3C)CC2)c1` the value was 0.0501 µM [falling, full curve]; for `COc1cc2c(cc1OC)CN(C(=O)CC1CC3CCC1C3)CC2` (stereo not drawn), 3.98 µM [falling, partial curve]. For `CCn1ccc(C(=O)Nc2ccc(S(=O)(=O)Nc3ccccc3OC)cc2)n1` the value was 0.501 µM [falling, single point]; for `O=C(NCC(=O)N(CCc1ccccc1)C(C(=O)NC1CCCC1)c1cccnc1)c1ccco1` (stereo not drawn), 0.126 µM [falling, full curve, poor fit].

As for `Cc1cnc(CNc2nc(-c3cccnc3)nc3ccccc23)cn1`, the AC50 is 12.6 µM [rising, partial curve]. On to `COc1ccc(-c2nc(NC(=O)C3CCN(c4nc5ccccc5o4)CC3)sc2C)cc1`, for which the AC50 is 12.6 µM [falling, partial curve]. In the case of `Nc1[nH]nc2nc(N3CCOCC3)nc(-c3ccccc3)c12`, the AC50 was 25.1 µM [rising, single point]. Consider `COC(=O)c1[nH]c2ccccc2c1NC(=O)CN1CCCc2ccccc21`, for which the half-maximal activity concentration (AC50) was 25.1 µM [rising, single point]. Regarding `COc1cc(C(=O)NCCc2nc3ccccc3n2C)cc(OC)c1OC`, the AC50 is 7.94 µM [rising, partial curve].

`C[C@@](N)(C(=O)O)c1ccc(P(=O)(O)O)cc1`: the AC50 was 31.6 µM [falling, single point].

`COc1ccc(C(=O)Nc2ccccc2-c2nnn(CC(=O)NCc3ccco3)n2)cc1`: the concentration at half-maximal activity (AC50) was 3.16 µM [rising, single point]. Regarding `Cc1oc(C(=O)O)cc1COc1ccc2c3c(c(=O)oc2c1C)CCCC3`, the AC50 was 0.316 µM [falling, partial curve, poor fit].

In the case of `Cc1cccc(C)c1NC(=O)CSCCO`, the AC50 was 0.126 µM [falling, single point]. On to `CC(Oc1ccc(Br)cc1)C(=O)N1CCc2ccccc21` (stereo not drawn), for which the AC50 was 12.6 µM [falling, single point]. On to `CCCn1nc(NS(C)(=O)=O)c2cc3cccc(C)c3nc21`, for which the AC50 is 3.16 µM [falling, full curve, poor fit]. `COc1cccc(Cn2c(=O)c(C)nc3cnc(OC)nc32)c1`: the AC50 is 5.01 µM [rising, full curve]. As for `C#CCN1C(=O)C(O)(CC(=O)c2cccc(OC)c2)c2ccccc21` (stereo not drawn), the AC50 is 0.0794 µM [falling, full curve, poor fit]. In the case of `CC(C)Cn1c(CN2C(=O)c3ccccc3C2=O)nc2ccccc2c1=O`, the AC50 is 6.31 µM [rising, partial curve].

With `Cc1ccc(C2C3=C(CCCC3=O)Nc3[nH]c(=S)[nH]c(=O)c32)cc1` (stereo not drawn), the AC50 was 31.6 µM [falling, single point]. Regarding `CCOc1ccc2c(c1)cc(CN(C(=O)CC)C1CCCCC1)c1nnnn12`, the concentration at half-maximal activity (AC50) was 10 µM [rising, partial curve]. Take `C=CCOn1c(=O)c(C)[n+]([O-])c2ccccc21`: the AC50 was 3.98 µM [rising, partial curve, poor fit]. Under `CCOC(=O)c1cccc(C(=O)OCC)n1` stands 2 µM [rising, full curve]; under `Cc1cc(C)nc(-n2nc(C)cc2NC(=O)CN2CCCC(C)C2)n1` (stereo not drawn), 12.6 µM [rising, partial curve]. For the compound `CCOC(=O)c1ccc(NC(=O)Oc2ccccc2)cc1`, the half-maximal activity concentration (AC50) was 0.0631 µM [rising, single point]. For the compound `CCOC(=O)c1oc2ccccc2c1NC(=O)c1cccc(OC)c1OC`, the AC50 is 1.58 µM [rising, full curve]. With `O=C(CSc1nc2ccncc2[nH]1)Nc1ccccc1C(F)(F)F`, the AC50 was 1.26 µM [falling, partial curve]. As for `Cc1ccc(C(=O)n2cnnc2N)cc1C`, the AC50 was 3.98 µM [falling, full curve]. As for `O=C(CSc1ccc2c(c1)OCCO2)Nc1ccc(Cl)cn1`, the AC50 is 12.6 µM [falling, partial curve]. For the compound `c1ccc2c(c1)OCC(c1csc3ncnc(N4CCOCC4)c13)O2` (stereo not drawn), the AC50 was 0.398 µM [rising, full curve].

Consider `COCCCNc1nc2c(c(=O)[nH]c(=O)n2C)n1CCCc1ccccc1`, for which the AC50 was 10 µM [rising, partial curve].

In the case of `O=C(Nc1nnc(C23CC4CC(CC(C4)C2)C3)s1)c1ccco1`, the AC50 is 0.501 µM [rising, single point]. Take `COc1ccc(C2CC(c3c(O)cc(C)oc3=O)=NCCS2)c(OC)c1` (stereo not drawn): the concentration at half-maximal activity (AC50) was 3.16 µM [rising, partial curve]. For `COc1ccc(S(=O)(=O)N(C)c2ccc(OCC(=O)Nc3cc(C)on3)cc2)cc1`, the concentration at half-maximal activity (AC50) is 25.1 µM [rising, single point]. Consider `Nc1ccc(-n2ccnc2)cc1`, for which the AC50 was 0.0631 µM [falling, full curve, poor fit].

On to `CCN(CC)S(=O)(=O)c1ccc2c(c1)c(=O)c(C(=O)NCCCN(C)c1ccccc1)cn2C`, for which the half-maximal activity concentration (AC50) was 10 µM [rising, single point]. In the case of `COc1ccccc1-c1nc(NCCN2CCOCC2)c2ccccc2n1`, the AC50 was 10 µM [rising, partial curve]. `CN1CCN(c2nc3c(c(=O)[nH]c(=O)n3C)n2Cc2cccc3ccccc23)CC1`: the concentration at half-maximal activity (AC50) is 12.6 µM [rising, partial curve].

`COc1ccc(S(=O)(=O)N2CCN(Cc3cccc(Cl)c3)CC2)cc1`: the AC50 is 12.6 µM [falling, partial curve].

For `CN1CCN(CCCNC(=O)C2CCN(c3nnc(-n4cccc4)s3)CC2)CC1`, the AC50 was 0.501 µM [falling, partial curve]. Under `Cc1cc(=O)[nH]c(-n2nc(C)c(Oc3ccccc3O)c2C)n1` stands 3.16 µM [rising, partial curve]; under `CC(=O)c1cc(-c2ccccc2)[nH]c1N1CCCC1`, 12.6 µM [falling, partial curve]; under `Brc1ccc(-c2cnc(-c3cccs3)o2)cc1`, 12.6 µM [rising, partial curve]. For `Cc1nc2c(c(=O)n1CCC1=CCCCC1)c1nc3ccccc3nc1n2/N=C/c1ccco1`, the AC50 is 20 µM [rising, single point].
